Test results published in US9403882B2, “Sulfation of Wnt pathway proteins” (priority 2010, dated 2016).
No constants are given. Whether binding was seen depends on the method and setting. Some entries that bind do so weakly or less than the wild type.

By UniProt entry, the sequences of proteins in these tests, tags left out. Residues count along the entry.
UniProt O75197, residues 32-643: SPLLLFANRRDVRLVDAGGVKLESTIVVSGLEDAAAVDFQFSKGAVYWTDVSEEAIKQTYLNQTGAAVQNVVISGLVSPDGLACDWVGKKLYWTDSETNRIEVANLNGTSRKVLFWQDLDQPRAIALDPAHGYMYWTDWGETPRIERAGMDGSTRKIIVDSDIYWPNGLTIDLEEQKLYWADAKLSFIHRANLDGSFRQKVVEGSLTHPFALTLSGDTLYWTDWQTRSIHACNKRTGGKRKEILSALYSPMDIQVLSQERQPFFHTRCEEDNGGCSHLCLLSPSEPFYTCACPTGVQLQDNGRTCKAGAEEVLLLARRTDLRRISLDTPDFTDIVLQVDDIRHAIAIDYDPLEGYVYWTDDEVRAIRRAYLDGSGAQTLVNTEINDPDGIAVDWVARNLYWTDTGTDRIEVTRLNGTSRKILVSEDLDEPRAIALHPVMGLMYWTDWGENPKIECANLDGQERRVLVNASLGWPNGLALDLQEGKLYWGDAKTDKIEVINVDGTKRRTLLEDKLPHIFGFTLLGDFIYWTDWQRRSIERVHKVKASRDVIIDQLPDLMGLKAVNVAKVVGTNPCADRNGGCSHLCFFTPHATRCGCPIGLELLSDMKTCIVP
UniProt Q99P68, residues 24-211: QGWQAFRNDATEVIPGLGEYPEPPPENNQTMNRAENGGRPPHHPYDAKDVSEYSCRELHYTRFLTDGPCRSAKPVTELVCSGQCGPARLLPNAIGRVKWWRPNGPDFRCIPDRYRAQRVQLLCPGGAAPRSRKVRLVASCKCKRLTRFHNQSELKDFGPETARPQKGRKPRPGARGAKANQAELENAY
UniProt Q9BQB4, residues 24-213: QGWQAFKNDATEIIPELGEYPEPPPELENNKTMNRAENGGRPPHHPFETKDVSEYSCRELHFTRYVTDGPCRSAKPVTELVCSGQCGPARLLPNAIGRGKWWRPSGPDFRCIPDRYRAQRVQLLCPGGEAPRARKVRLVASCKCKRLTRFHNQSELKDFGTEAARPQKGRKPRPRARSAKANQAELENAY

Biological target: LRP5R1/2-AP (LRP5 extracellular domains 1 and 2 fused to alkaline phosphatase) (UniProt O75197)
Assay: plate-coated sclerostin, LRP5R1/2AP conditioned medium, alkaline phosphatase luminescence

Row | Substance | binding
1 | Mouse sclerostin treated in vitro with TPST (from UniProt Q99P68 24-211) (ligand) | binds
2 | Mouse sclerostin, untreated (from UniProt Q99P68 24-211) (ligand) | binds
3 | Human sclerostin produced in High Five insect cells treated with 1 mM chlorate ("Unmodified", unsulfated) (from UniProt Q9BQB4 24-213) (ligand) | binds
4 | Chlorate-treated human sclerostin subsequently treated with TPST-1 and PAPS ("In vitro modified") (from UniProt Q9BQB4 24-213) (ligand) | binds
5 | Human sclerostin (R&D Systems) treated in vitro with human TPST1 and PAPS (Example 1) (from UniProt Q9BQB4 24-213) (ligand) | binds
6 | Human sclerostin produced in High Five insect cells without chlorate ("Normal", sulfated) (from UniProt Q9BQB4 24-213) (ligand) | binds
